In US6642355B2 (priority 1991, dated 2003):

Tests used:
[1] = general procedure: hybrid (solid and solution phase) peptide synthesis; symmetrical acid anhydride (ABI 430A); PyBOP for cyclisation/condensation; details: whole synthesis; for isolated mass: scale 60 μmol
[2] = Fmoc solid-phase peptide synthesis; symmetrical acid anhydride (ABI 430A); PyBOP for cyclisation/condensation; details: whole synthesis, scale 10.4 μmol

Fmoc-GD(OBn)WHGTA-OH
isolated mass [1]: 40.5 mg

Fmoc-GNWK(Cbz)GTA-OH
isolated mass [1]: 9.9 mg

Gly-Asp-Trp-His-Gly-Thr-Ala-Pro-Asp-Trp-Val-Tyr-Phe-Ala-His-Leu-Asp-Ile-Ile-Trp-OH
crude mass ([1]; scale 10.4 μmol): 19.2 mg

H-Gly-Asn-Trp-His-Gly-Thr-Ala-Pro-Asp-Trp-Leu-Tyr-Phe-Ala-His-Gln-Asp-Val-Ile-Trp-OH
crude mass ([1]; scale 15.6 μmol): 56.0 mg

H-Gly-Asn-Trp-His-Gly-Thr-Ala-Pro-Asp-Trp-Val-Tyr-Tyr-Ala-His-Leu-Asp-Ile-Ile-Trp-OH
crude mass ([1]; scale 15.6 μmol): 63.5 mg

H-Gly-Asn-Trp-Lys-Gly-Thr-Ala-Pro-Asp-Trp-Val-Tyr-Phe-Ala-His-Leu-Asp-Ile-Ile-Trp-OH
crude mass ([1]; scale 10.4 μmol): 30.0 mg

PEPTIDE1{G.N.W.H.G.T.A.P.D.W.V.Y.F.A.H.L.D.I.I.W}$$$$V2.0
crude mass [2]: 25 mg

For some of these results: Some peptides are written in HELM: one residue between dots, names in brackets for other building blocks, links after the first $. * marks the point of attachment. Fmoc = O=C(OCC1c2ccccc2-c2ccccc21)*; Cbz = O=C(OCc1ccccc1)*; OBn = c1ccc(CO*)cc1
